Measurements from PubChem BioAssay AID504444 (National Center for Advancing Translational Sciences (NCATS), 2011).
Hit rate of the full screen: of about 360,000 compounds, about 7,500 (2.1%) were called active. The shares of active, inactive and inconclusive entries below differ from those in the screen. The call rests on the fitted dose curve; in most records, active means well fitted inhibition curve with a large enough effect; inconclusive means small, poorly fitted or top-dose-only effect, or effect the other way; inactive means flat fitted curve, though single readings scatter. Where the call is inconclusive, the potency comes from a doubtful curve fit.
Potency means the concentration at half of the fitted maximal effect.

Experiment: Nrf2 qHTS screen for inhibitors; further: nearly all actives have a fitted effect of over 60% in size
Settings: A549 ARE-Fluc reporter, luciferase luminescence, 18-24 h; series mostly up to 46 µM
Summary of the method: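 Nrf2 function is reported as luminescence of an ARE-controlled luciferase in A549 cells. Compounds were tested at several concentrations, and a CellTiter-Fluor read on the same wells flagged cytotoxicity.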
With `Cc1ccc(NC(=O)COc2ccccc2C(N)=O)cc1S(=O)(=O)N1CCCCCC1` the Potency was active: 5.17 µM. With `Cc1ccc(C(=O)N2CCN(C3c4cccc5cccc(c45)C3NS(=O)(=O)c3ccccc3)CC2)cc1` (centres undefined) the Potency was inconclusive: 29.1 µM [falling, single point]. In the case of `CCOc1cccc2cc(-c3csc(NC(=O)CCC(=O)NCCN4CCCCC4C)n3)c(=O)oc12` (centres undefined), the Potency is reported as inconclusive: 4.11 µM [activator, full curve]. With `CC1(C)CC[C@]2(C(=O)O)CC[C@]3(C)C(=CC[C@@H]4[C@@]5(C)CC[C@H](O)C(C)(C)[C@@H]5CC[C@]43C)[C@@H]2C1` the Potency was “inactive”. With `Cc1ccc(Nc2nc(N3CCOCC3)c3ccccc3n2)cc1` the Potency was inconclusive: 16.4 µM [falling, partial curve]. In the case of `O=C(c1ccc(CS(=O)(=O)c2c(Cl)cccc2Cl)o1)N1CCN(c2ccccc2)CC1`, the Potency is reported as inconclusive: 5.8 µM [falling, full curve]. For `Cc1ccccc1COc1ccc(-c2nn[nH]n2)cc1`, the Potency was inconclusive: 25.9 µM [activator, single point]. With `Cc1cccc2cc3c(nc12)-c1ccccc1C3=O` the Potency was inconclusive: 25.9 µM [activator, partial curve]. In the case of `Cc1ccc(Cl)cc1N1CCN(c2ncnc3onc(-c4ccc(F)cc4)c23)CC1`, the Potency is reported as inconclusive: 10.3 µM [activator, partial curve, poor fit]. With `O=C(c1cc([N+](=O)[O-])ccc1Cl)N1CCN(c2ccc(F)cc2)CC1` the Potency was “inactive”. For `Cc1ccc(Cn2c(C)c(CNC(C)c3ccccc3)c(C(=O)O)c2C)cc1` (centres undefined), the Potency was inconclusive: 29.1 µM [activator, single point]. With `Cc1cccc(-n2ncc3c2CCCC3NC(=O)CCc2ccncc2)c1C` (centres undefined) the Potency was active: 5.8 µM. With `Cc1ccc(S(=O)(=O)Cc2nc(-c3ccc(C(=O)NCc4ccccc4F)cc3)oc2C)cc1` the Potency was inconclusive: 10.3 µM [falling, partial curve, poor fit]. With `C=CCNC(=O)CN1N=C(c2ccc(C)cc2)CCC1=O` the Potency was “inactive”. In the case of `CC(C)(C)c1ccc(-c2noc(CCC(=O)Nc3cccc(Cl)c3)n2)cc1`, the Potency is reported as active: 0.146 µM. With `CCCn1c(N/N=C\C=C\c2ccccc2)nc2c1c(=O)[nH]c(=O)n2C` the Potency was active: 9.2 µM. With `Cc1c(N)cc[n+](CC(=O)c2ccccc2)c1C` the Potency was active: 4.11 µM. With `COc1ccc(NC(=O)C2CCCN(C(=O)c3ccc(Cl)cc3)C2)cc1Cl` (centres undefined) the Potency was inconclusive: 23.1 µM [falling, single point]. For `CCOc1ccccc1CNC(=O)CCC(=O)N1Cc2ccccc2Oc2ncccc21`, the Potency was “inactive”.
